# Measurements reported in US20250222114A1, “GLYCOCONJUGATED DRUG FOR THE TREATMENT OF HEPATOCELLULAR CARCINOMA” (priority 2021, published 2025).
# “And” between values parts separate entries of the source, which are not always exact repeats. Equal entries are not always repeated. At least one structure is not confirmed: it was looked up by name or label, or the drawing left a doubt.
# Test system: orthotopic Hepa129 tumors
# Assay: Orthotopic hepatocellular carcinoma model associated with advanced fibrosis induced by TAA
# Format: in vivo, C3H/He mice
# Conditions: 20 mg/kg; one grade per mouse (1-5)
# Experimental: To assess the in vivo antitumoral efficacy of 4MUR, an orthotopic tumor model associated with advanced fibrosis induced by TAA was established
# C3H/He mice were intraperitoneally (i.p.) treated with 20 mg/kg thioacetamide (TAA) 3 times a week, for 4 weeks, in order to induce liver fibrosis. On day 28, mice were anesthetized and underwent surgery and orthotopic tumors were established by subcapsular intrahepatic inoculation of 1.25×10^5 Hepa129 cells into the left lobe of the liver (Day 0).
# Between day 5 and day 7 post-administration of the cells, animals were again subjected to surgery for observing tumor development. […] On day 21, animals were sacrificed, mice weight was recorded and ascites grade (mild, moderated, severe, and hemorrhagic), as well as tumor volume (mm^3), was calculated by the formula π/6×larger diameter×(smaller diameter)^2, by caliber measurement.
# The 4MUR treatment on liver fibrogenesis was evaluated in the animal model. […] Quantitative analysis of Sirius red stained area was performed by computerized morphometric analysis. About 50 light microscope images (100× magnification) per specimen were captured and analyzed using the color threshold detection system developed in ImageJ software (NIH, USA). The results were expressed as percentage of positive area. Collagen deposition was quantified by morphometric analysis and densitometry. […]
smiles,measurement,value
"Cc1cc(=O)oc2cc(O[C@@H]3O[C@H](CO[C@@H]4O[C@@H](C)[C@H](O)[C@@H](O)[C@H]4O)[C@@H](O)[C@H](O)[C@H]3O)ccc12 [4MUR, 4-methylumbelliferyl-rutinoside]",Ascitic fluid accumulated in animals,− (4×) and +
